US20260116965A1
No constants are given. Whether binding was seen depends on the method and setting. Some entries that bind do so weakly or less than the wild type.

Target: T1, immunopeptide (TRPV6 antigen polypeptide, SEQ ID NO: 3 with a cysteine added to the amino end) (human)
T1 sequence (peptide): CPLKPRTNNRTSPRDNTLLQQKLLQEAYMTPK
Assay: ELISA of hybridoma supernatant on immunogen and synthetic polypeptide

binding: binds
B1: CB-Anti-0002 antibody (antibody, IgG1, V domains shown)
VH: EVKLEESGGGLVQPGGSMKLSCVASGFTFSYYWMNWVRQSPEKGLEWVAEIRLKSHNYATHYAESVKGRFTISRDDSKSSVYLQMNNLRSEDTGIYYCARLAYDGERYYYALDYWGQGTSVTVSS
VL: DIVMSQSPSSLAVSVGEKFTMSCKSSQSLLYSNNQKNYLAWYQQKPGQSPKLLIYWASTRESGVPDRFTGSGYGTDFTLTISSVKAEDLAVYYCQQYYSYPFTFGSGTKLEIK
